Assay results as given in the supplement of paper PMC10849652.
The other results are listed elsewhere or left out.

Protein sequences, listed by entry. Tags and fused reporters are not part of them. Lines headed by an entry give the natural chain unless they say otherwise; changes in a name come on top.
UniProt Q96AK3: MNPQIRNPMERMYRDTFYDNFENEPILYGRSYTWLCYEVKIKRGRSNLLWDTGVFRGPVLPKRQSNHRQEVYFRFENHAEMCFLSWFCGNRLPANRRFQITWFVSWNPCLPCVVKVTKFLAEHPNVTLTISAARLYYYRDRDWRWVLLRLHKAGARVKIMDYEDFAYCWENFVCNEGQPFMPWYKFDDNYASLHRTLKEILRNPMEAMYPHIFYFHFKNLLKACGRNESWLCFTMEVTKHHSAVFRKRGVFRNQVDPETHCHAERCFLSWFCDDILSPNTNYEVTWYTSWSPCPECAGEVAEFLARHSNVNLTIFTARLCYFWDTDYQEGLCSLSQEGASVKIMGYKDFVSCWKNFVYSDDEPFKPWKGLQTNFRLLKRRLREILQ
UniProt Q92619: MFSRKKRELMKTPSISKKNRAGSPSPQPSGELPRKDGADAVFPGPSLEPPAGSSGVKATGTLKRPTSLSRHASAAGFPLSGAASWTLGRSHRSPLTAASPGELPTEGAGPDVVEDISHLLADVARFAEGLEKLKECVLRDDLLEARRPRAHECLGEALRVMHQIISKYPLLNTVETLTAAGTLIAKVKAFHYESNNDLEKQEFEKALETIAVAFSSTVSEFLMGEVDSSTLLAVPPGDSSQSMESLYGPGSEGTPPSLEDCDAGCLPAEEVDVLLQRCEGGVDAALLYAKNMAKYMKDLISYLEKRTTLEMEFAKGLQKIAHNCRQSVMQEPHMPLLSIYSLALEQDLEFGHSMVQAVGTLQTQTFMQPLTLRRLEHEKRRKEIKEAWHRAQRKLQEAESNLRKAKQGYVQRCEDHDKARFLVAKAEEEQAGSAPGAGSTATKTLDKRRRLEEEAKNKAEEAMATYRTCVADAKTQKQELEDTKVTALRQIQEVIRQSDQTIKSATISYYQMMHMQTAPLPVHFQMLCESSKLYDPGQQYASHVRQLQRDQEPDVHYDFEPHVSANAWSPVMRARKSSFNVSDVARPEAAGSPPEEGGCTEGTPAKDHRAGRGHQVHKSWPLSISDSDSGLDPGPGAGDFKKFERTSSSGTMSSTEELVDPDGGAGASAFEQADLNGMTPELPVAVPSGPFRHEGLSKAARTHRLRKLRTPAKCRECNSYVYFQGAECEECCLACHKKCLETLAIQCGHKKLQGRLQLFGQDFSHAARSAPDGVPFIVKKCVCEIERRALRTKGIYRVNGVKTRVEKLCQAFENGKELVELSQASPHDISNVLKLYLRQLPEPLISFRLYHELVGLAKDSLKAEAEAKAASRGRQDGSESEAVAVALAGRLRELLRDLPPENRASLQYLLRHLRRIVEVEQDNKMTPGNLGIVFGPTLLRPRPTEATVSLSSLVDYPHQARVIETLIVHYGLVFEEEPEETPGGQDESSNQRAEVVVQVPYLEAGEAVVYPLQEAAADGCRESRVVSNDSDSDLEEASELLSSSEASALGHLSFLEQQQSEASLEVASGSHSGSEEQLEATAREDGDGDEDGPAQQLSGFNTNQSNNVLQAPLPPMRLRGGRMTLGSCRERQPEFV
UniProt O95445: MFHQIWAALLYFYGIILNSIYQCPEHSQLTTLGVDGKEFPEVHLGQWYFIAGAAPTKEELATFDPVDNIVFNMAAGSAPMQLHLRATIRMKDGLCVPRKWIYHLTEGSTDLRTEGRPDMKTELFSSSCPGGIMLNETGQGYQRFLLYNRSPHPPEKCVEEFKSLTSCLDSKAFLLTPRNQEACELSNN
UniProt O43299: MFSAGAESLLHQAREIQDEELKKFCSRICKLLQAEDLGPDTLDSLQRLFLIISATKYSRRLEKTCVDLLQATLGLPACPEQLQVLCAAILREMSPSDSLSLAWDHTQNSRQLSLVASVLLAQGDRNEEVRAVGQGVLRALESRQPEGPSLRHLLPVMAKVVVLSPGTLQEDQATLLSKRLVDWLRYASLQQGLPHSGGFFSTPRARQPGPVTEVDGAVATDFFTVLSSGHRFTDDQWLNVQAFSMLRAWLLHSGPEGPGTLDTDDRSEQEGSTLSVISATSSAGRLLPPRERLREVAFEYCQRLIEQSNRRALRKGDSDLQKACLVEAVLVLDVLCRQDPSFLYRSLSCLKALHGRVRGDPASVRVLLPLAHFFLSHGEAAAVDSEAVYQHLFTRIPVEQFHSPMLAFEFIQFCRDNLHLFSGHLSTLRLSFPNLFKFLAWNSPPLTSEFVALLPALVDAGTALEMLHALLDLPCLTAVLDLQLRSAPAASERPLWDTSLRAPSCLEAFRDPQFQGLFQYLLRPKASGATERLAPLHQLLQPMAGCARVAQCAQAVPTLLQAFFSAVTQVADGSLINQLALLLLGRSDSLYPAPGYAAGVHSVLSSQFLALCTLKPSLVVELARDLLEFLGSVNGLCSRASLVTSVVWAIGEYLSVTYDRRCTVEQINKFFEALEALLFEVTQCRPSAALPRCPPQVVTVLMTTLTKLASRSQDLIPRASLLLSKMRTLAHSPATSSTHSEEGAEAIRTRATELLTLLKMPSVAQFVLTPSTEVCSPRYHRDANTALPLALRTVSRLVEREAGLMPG
UniProt Q63HQ0: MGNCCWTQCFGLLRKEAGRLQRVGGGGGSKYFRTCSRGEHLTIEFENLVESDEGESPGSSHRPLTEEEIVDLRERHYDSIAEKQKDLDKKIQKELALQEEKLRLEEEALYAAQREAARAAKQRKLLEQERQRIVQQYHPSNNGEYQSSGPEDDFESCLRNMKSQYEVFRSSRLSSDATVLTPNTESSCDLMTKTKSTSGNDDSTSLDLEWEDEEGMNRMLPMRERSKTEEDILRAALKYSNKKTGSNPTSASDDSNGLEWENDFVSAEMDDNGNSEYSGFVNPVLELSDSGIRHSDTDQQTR
UniProt P07355, whole entry, looked up: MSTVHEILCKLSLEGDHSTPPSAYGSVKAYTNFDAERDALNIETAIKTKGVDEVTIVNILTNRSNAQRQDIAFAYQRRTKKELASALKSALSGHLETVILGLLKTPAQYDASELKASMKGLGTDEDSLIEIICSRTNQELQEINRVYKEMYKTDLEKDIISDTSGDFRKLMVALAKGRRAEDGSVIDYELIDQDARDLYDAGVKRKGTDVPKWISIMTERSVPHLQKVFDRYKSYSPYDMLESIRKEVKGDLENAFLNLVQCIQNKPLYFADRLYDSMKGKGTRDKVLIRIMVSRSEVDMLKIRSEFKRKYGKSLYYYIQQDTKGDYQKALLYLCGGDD
UniProt Q10567: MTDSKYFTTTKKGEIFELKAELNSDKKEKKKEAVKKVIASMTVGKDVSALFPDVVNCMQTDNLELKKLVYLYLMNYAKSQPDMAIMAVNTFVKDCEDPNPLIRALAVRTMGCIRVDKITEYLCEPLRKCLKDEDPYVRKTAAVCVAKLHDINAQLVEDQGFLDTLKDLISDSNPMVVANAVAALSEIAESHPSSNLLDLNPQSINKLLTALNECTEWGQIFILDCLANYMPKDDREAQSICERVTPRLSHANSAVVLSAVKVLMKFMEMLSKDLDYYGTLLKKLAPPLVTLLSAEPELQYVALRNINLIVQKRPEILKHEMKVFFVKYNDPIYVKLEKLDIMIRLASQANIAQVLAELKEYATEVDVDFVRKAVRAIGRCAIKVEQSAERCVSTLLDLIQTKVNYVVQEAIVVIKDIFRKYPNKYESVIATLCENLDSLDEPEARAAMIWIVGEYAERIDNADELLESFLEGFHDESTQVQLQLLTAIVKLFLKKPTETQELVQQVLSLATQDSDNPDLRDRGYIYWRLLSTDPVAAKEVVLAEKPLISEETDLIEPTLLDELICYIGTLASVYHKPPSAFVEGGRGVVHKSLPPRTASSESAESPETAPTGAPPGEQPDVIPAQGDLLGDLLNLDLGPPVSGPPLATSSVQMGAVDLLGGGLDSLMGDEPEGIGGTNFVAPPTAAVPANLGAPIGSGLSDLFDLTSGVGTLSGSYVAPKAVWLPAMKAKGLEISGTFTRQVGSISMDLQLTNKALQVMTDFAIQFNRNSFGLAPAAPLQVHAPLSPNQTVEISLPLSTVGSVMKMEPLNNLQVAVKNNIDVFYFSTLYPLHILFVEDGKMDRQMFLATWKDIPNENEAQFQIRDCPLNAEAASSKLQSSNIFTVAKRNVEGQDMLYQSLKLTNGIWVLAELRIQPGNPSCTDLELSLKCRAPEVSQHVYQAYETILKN
UniProt P61204: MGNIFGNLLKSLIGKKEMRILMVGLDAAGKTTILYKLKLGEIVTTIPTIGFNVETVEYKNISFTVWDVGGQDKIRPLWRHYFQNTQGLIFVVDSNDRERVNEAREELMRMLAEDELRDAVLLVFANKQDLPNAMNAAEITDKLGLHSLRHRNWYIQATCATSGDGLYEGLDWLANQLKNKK
UniProt Q0VD83: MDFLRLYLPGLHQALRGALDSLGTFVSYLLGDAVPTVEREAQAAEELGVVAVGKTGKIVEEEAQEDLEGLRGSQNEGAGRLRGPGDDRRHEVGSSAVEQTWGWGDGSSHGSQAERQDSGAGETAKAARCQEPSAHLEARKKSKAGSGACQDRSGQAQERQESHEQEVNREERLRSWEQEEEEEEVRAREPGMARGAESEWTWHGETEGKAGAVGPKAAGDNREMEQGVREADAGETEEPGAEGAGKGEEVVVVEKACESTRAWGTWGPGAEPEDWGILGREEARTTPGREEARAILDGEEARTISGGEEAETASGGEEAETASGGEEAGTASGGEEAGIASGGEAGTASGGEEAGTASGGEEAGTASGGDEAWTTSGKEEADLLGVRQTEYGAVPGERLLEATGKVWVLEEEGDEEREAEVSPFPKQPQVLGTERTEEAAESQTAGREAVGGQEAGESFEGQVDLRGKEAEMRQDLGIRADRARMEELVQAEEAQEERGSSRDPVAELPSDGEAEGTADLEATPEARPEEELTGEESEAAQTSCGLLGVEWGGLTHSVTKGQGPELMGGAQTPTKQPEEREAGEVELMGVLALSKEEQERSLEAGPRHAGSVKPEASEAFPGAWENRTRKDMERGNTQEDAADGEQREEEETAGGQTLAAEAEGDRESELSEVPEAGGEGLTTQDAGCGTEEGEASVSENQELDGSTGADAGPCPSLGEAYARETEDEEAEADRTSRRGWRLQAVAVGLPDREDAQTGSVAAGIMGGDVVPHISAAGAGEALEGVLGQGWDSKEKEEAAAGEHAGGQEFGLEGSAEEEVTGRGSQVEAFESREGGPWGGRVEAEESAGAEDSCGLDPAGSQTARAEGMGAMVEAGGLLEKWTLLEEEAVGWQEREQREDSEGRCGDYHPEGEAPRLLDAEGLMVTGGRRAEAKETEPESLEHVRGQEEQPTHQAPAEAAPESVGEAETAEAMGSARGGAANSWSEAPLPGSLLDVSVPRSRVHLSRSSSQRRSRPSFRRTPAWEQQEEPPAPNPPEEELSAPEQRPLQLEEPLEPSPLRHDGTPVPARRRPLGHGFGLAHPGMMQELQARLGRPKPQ
UniProt O43747: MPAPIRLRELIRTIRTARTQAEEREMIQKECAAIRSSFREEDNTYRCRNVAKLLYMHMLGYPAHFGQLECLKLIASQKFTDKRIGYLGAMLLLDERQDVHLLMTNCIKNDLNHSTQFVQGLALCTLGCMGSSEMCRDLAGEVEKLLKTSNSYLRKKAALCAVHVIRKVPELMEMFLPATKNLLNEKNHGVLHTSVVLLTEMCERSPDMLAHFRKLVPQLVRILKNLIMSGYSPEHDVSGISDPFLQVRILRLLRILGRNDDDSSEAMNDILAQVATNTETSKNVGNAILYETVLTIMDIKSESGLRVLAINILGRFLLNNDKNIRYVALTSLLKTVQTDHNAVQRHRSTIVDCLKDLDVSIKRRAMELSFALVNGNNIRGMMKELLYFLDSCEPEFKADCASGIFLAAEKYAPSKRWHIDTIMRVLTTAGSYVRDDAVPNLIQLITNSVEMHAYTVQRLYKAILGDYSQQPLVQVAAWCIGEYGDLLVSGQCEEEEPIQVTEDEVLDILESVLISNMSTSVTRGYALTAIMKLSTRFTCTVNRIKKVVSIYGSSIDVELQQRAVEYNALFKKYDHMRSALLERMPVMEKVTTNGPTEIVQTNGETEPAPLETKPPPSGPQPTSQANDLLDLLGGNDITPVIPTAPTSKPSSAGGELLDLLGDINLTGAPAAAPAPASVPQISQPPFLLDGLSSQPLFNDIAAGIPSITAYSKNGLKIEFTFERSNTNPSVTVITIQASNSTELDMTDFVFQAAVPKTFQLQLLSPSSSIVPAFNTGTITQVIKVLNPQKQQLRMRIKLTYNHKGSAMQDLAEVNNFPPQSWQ
UniProt P53365: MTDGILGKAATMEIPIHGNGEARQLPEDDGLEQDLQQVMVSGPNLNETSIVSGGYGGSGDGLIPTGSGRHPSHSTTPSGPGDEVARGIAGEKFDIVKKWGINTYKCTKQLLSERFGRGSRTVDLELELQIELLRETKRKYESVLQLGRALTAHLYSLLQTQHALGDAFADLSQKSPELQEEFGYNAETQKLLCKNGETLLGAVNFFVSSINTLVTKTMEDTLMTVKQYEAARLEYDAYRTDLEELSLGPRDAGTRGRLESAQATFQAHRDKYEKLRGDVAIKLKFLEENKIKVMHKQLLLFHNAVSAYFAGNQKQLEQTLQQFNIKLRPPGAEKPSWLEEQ

What follows are targets tested with c1cn2cc(-c3ccc4cn[nH]c4c3)nc(Nc3ccc(N4CCOCC4)cc3)c2n1 [entospletinib] (assay: log2 fold change, soluble protein after heating vs DMSO (PISA); higher = thermal stabilisation; K562 cells, 10 uM, 30 min; active = over 0.2 and 3.5 SD of the protein, either way, in both replicates (recomputed)).
Method in brief: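 Values are thermal stability changes relative to control samples and are taken from duplicates. They are stated as log2 fold changes. Before quantification by TMTpro 16plex LC-MS/MS with equalised channel sums, K562 cells at 2×10^6 cells/mL were treated with 10 μM compound for 30 min, heated in aliquots for 3 min across 48°C-58°C, pooled, extracted in PBS with 0.5% NP-40 at 4°C, and centrifuged at 21,000xg for 90 min to give the soluble supernatant.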

log2 fold change, inactive:
APOBEC3D (UniProt Q96AK3) 0.079
ARHGAP45 isoform 2 (UniProt Q92619) 0.016
ARHGAP5 (UniProt Q13017) -0.315
ANXA1 (UniProt P04083) -0.005
ARHGAP35 (UniProt Q9NRY4) 0.036
APOD (UniProt P05090) 0.016
ANKMY2 (UniProt Q8IV38) -0.009
APOM (UniProt O95445) 0.223
ANKRD28 (UniProt O15084) 0.018
ANKRD13C (UniProt Q8N6S4) 0.01
ANXA6 (UniProt P08133) 0.012
AP3B1 (UniProt O00203) -0.006
ANXA4 (UniProt P09525) -0.002
AP5Z1 (UniProt O43299) 0.239
ANKHD1 isoform 6 (UniProt Q8IWZ3) 0.064
AP1AR (UniProt Q63HQ0) 0.04
ANKRD46 (UniProt Q86W74) -0.177
APC (UniProt P25054) 0.044
ARHGAP6 (UniProt O43182) 0.028
ANXA2 isoform 2 (UniProt P07355) -0.058
AP1B1 (UniProt Q10567) 0.007
ARF3 (UniProt P61204) 0.001
APOBR (UniProt Q0VD83) 0.015
ARF5 (UniProt P84085) -0.031
ANKS1A (UniProt Q92625) -0.098
ARCN1 (UniProt P48444) -0.024
ARHGAP12 (UniProt Q8IWW6) -0.076
AP1G1 isoform 2 (UniProt O43747) 0.026
ARFIP2 (UniProt P53365) -0.108
ARFGAP3 (UniProt Q9NP61) 0.021
APOL2 (UniProt J3KQL8) -0.097
APP (UniProt P05067) -0.001

Nothing new here: entries from further up.
log2 fold change, inactive:
ARHGAP12 (UniProt Q8IWW6) -0.076
AP1G1 isoform 2 (UniProt O43747) 0.026
